These are yes or no findings as the source states them, for the method shown. In cells and extracts the contact can be indirect. Some binding calls cover weakened binding; strength is not graded here.

Sequences of proteins named here, by UniProt entry; tags and fusion partners are left off. Residues count along the entry.
UniProt Q60598, residues 488-546: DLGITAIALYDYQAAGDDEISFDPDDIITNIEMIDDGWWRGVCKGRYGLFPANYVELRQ
UniProt Q05397: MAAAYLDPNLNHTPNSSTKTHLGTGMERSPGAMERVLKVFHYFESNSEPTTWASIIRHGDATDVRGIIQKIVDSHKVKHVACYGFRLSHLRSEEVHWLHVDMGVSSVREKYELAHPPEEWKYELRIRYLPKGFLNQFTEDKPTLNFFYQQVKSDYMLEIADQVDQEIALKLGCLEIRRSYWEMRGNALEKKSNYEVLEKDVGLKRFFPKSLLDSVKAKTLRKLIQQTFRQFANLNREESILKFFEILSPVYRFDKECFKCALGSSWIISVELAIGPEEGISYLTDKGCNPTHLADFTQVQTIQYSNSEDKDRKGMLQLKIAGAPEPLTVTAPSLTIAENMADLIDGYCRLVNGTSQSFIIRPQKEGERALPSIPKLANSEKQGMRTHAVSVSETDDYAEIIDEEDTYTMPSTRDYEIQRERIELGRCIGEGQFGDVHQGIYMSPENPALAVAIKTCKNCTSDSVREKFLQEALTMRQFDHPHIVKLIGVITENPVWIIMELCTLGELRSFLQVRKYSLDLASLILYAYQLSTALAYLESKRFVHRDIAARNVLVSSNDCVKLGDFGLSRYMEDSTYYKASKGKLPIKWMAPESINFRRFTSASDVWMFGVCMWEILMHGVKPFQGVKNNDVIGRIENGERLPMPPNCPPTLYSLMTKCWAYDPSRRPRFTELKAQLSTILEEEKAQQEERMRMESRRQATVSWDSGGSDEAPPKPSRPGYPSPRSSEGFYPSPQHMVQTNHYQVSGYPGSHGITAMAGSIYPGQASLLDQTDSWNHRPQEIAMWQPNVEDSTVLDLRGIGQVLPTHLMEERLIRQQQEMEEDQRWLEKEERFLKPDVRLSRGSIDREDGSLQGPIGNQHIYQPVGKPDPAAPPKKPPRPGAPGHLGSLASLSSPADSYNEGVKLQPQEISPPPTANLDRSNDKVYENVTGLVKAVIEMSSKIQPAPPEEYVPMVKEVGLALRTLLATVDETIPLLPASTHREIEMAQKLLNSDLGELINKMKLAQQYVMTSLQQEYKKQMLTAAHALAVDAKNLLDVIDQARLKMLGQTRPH
UniProt P34152: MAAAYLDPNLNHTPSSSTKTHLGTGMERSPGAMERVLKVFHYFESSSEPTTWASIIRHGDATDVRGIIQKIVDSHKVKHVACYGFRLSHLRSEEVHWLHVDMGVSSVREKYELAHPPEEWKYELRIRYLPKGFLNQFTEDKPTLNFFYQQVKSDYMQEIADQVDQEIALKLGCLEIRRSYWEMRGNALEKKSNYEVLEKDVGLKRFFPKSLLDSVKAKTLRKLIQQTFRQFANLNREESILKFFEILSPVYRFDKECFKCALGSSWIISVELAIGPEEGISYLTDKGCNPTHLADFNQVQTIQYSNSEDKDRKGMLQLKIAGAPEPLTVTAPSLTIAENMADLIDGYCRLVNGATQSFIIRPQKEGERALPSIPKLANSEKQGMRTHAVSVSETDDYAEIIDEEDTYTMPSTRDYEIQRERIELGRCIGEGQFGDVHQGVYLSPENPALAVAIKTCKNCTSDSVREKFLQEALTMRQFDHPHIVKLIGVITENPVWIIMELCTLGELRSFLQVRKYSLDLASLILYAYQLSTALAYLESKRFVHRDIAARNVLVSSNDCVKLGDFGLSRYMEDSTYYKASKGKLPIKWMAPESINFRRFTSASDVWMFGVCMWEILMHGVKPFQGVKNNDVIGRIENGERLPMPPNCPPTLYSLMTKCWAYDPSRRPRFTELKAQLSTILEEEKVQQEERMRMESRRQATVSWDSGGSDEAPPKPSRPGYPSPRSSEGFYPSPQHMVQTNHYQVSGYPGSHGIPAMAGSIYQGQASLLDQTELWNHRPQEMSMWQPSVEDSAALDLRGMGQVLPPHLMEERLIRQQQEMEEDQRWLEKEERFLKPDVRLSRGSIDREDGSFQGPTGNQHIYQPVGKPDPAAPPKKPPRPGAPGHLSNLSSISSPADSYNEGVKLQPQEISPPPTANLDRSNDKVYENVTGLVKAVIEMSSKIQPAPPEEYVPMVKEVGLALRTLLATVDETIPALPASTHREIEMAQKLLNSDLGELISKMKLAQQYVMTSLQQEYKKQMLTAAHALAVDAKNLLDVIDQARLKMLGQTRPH

Test [1] has as its target GST-cortactin SH3 domain (mouse) (UniProt Q60598). As to the kind of experiment: pull-down; GST-SH3 or GST on GSH-beads added to 200 µl RIPA lysate of HeLa cells kept in suspension or spread 3 h on fibronectin; 3 h at 4°C; WB with FAK Ab; only the target purified.
The target is the same in test [2]. The test is described as follows: pull-down; GST-SH3 with Rsrc cell lysates; data not shown; only the target purified.

Consider “focal adhesion kinase (FAK) (from UniProt Q05397 1-1052)”, for which, in test [1], the binding entry was “binds”.
“focal adhesion kinase (FAK) of Rsrc cells (from UniProt P34152 1-1052)”: in test [2], the binding result is “binds”.
